# No constants are given. Whether binding was seen depends on the method and setting. Some results given as binding are weak or reduced against the parent protein; the word gives no strength.
# Molecular target: ErbB2 (UniProt P04626)
# Assay: MRD identification, Example 48
row,Binder,binding
1,WSGWCFEQAGWGHCLGLP [EGB399],binds
2,WSGYCFDSTHEGWYQCGAVS [EGB385],binds
3,WSGWCMISNQWRHCGSPD [EGB394],binds
4,WSGWCQHMQVPIWHACSGGL [EGB420],binds
5,IIEFCWYLQQYDECWVPK [EGB413],binds
6,WTGWCLVENQWTYCQNGD [EGB387],binds
7,WQGYCYQEVYALWDHCSGPL [EGB408],binds
8,WSGWCEEQFGWSQCRRSP [EGB401],binds
9,WSGWCFQETHWQHCMGLR [EGB403],binds
10,WSGYCNSNGAWMMCGGGT [EGB398],binds
11,WSGWCFEEAGWGHCMGLP [EGB388],binds
12,WSGWCETPHQWHDCKGTI [EGB411],binds
13,MIEFCWYYMALPECWIPT [EGB412],binds
14,WSGYCFDRGYWQQCSSAW [EGB389],binds
15,GSMLCLWFNDNPQCFEVC [EGB410],binds
16,WSGWCFQFDNWDHCTGSV [EGB416],binds
17,WSGLCLWDMFWQQCHGSS [EGB380],binds
18,WVVSCHTSTQVLMCVCLL [EGB396],binds

row,Binder,binding
1,WSGYCYVFDHWESCRGRE [EGB391],binds
2,WSGCCHWEAAWNNCGGWT [EGB393],binds
3,WSGWCFKEAGWGHCMGLP [EGB392],binds
4,WRGWCQIAGEWQHCSNYS [EGB406],binds
5,WSGYCYEGVTWRSCWGDM [EGB414],binds
6,WSGLCLTEEVWHVCQGTI [EGB421],binds
7,WSGWCQSHGEWMRCRSWT [EGB400],binds
8,WTGWCEGHGQWGWCHSSL [EGB395],binds
9,WTGYCVDQERHQWHQCFGRS [EGB407],binds
10,WSGWCWSDESKYWYSCHSRA [EGB375],binds
11,WSGWCFHETHWQHCSAGG [EGB386],binds
12,SVLGCDDVGFYQCLEFLGQA [EGB383],binds
13,SFTLTCGAHQCLCHVL [EGB419],binds
14,WTGFCQSSKTQKWQHCRGGG [EGB423],binds
15,WSGWCFAMEHQKWKQCAGSS [EGB409],binds
16,WTGFCFDENHWYICGTGR [EGB404],binds
17,WSGWCQFKDGQWAKCTGRV [EGB384],binds

# Further lines, results first:
row,binding,Binder
1,binds,WSGYCEYQDRWAHCGGTPGQAGQGGGSWSGYCRTEGHWAHCGGSV [EGB448]
2,binds,WSGWCLYESGWGHCYGWI [EGB451]
3,binds,WSGYCEYKYKWDHCGTSV [EGB452]
4,binds,WSGWCFYQVEYIWRSCEPAS [EGB428]
5,binds,WSGYCVDFEFPAWGYCHGNI [EGB426]
6,binds,WSGWCFTEGVWGHCKGLG [EGB464]
7,binds,WSGWCEEELQWSFCSGHL [EGB425]
8,binds,WSGYCEMQDHWDYCSGSI [EGB463]
9,binds,WSGWCLMETGWGHCKGLP [EGB442]
10,binds,WSGWCFSADGWGHCRGVI [EGB444]
11,binds,WSGYCEFKDHWAHCGGSV [EGB456]
12,binds,WSGWCFYGSWWDYCSGGH [EGB446]
13,binds,NRSGCIEIHYEDCLLIV [EGB429]
14,binds,WSGWCFYVDHWDYCGGLI [EGB437]
15,binds,WSGWCLYDAGWGYCSGLQ [EGB462]
16,binds,WSGYCEFKDYWAHCSGSM [EGB459]
17,binds,WTGYCLSSERHKWHHCFGRS [EGB431]

row,binding,Binder
1,binds,WTGWCYMEHFWDICHGPA [EGB430]
2,binds,WSGYCDMGDHWSHCGHSG [EGB445]
3,binds,WSGYCEYSDHWAHCGGSL [EGB460]
4,binds,WSGWCFQFDNWDRCPGSV [EGB432]
5,binds,WSGWCYSQALMSWTYCHEFK [EGB427]
6,binds,WSGYCEFEDHWDFCGTSR [EGB447]
7,binds,WSGYCEFQDHWGYCGNTE [EGB458]
8,binds,WSGWCLGEAGWGHCRGLL [EGB450]
9,binds,WSGWCFYGSYWGHCKGIL [EGB440]
10,binds,WSGWCLGETGWGHCSGMP [EGB455]
11,binds,WSGYCEGTDHWYHCGGSM [EGB438]
12,binds,WSGWCFIKTHWGHCYGQI [EGB436]
13,binds,WSGYCQMKDHWAHCGHSE [EGB433]
14,binds,WSGYCEFEDHWDYCGTPK [EGB441]
15,binds,WSGWCLFADGWGHCYGVI [EGB435]
16,binds,WSGYCEFKDHWAHCGGSL [EGB453]
17,binds,WSGWCFYGDRWGHCSGLP [EGB439]

# Reference: US20160046678A1 (ZYNGENIA, published 2016)
